PubChem BioAssay AID504786, Drosophila RNAi Screening Center | 2011
In all, the deposit lists about 21,000 reagents; shown is an unselected part of those with a known target gene and a result. 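Primary screen; positive scores mean lost reporter signal, so the sign may be inverted from the usual convention.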 Not all columns of the deposit are shown.

Test: 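Knock-downs reducing HIF reporter induction by the iron chelator DFO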 (primary screen)
System: Drosophila S2 cells with a stable HIF luciferase reporter
Reagents: long dsRNA against Drosophila genes, about 0.2 µg dsRNA per well of a 384-well plate
Timing: three days of knock-down, then 20 h of DFO before reading
Challenge: desferrioxamine (DFO) at 100 µM, an iron chelator that mimics hypoxia, for 20 h
Read-out: 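HIF reporter luminescence in cells given 100 µM DFO for 20 h, using the mouse ldh-a hypoxia-response element, scored as per-plate z-scores; higher means greater loss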
Reading the numbers: z-score: higher = stronger loss of HIF reporter signal

The opening 4 entries, ahead of the listing:
CG11293 (retired record) [DRSC04098]
- z-score, replicate 1: -0.4

CG2852 [DRSC04321]
- z-score, replicate 1: -0.3

CG6271 [DRSC16006]
- z-score, replicate 1: -0.3

chico [DRSC03531]
- z-score, replicate 1: 0

The listing, repeating the preview:
CG11293 (retired record) [DRSC04098]
- z-score, replicate 1: -0.4

CG2852 [DRSC04321]
- z-score, replicate 1: -0.3

CG6271 [DRSC16006]
- z-score, replicate 1: -0.3

chico [DRSC03531]
- z-score, replicate 1: 0

CG16713 [DRSC00477]
- z-score, replicate 1: -0.2

CG14265 [DRSC18591]
- z-score, replicate 1: -0.3

Tsf2 [DRSC09751]
- z-score, replicate 1: -0.3

miple2 [DRSC08723]
- z-score, replicate 1: -0.2

CG15459 [DRSC20530]
- z-score, replicate 1: -0.3

Sqor [DRSC08453]
- z-score, replicate 1: -0.3

muskelin [DRSC07273]
- z-score, replicate 1: -0.2

Sec3 [DRSC10384]
- z-score, replicate 1: -0.4

CG7766 [DRSC18424]
- z-score, replicate 1: -0.4

CG31100 [DRSC14453]
- z-score, replicate 1: -0.3

CG31100 [DRSC14455]
- z-score, replicate 1: -0.1

wnd [DRSC09626]
- z-score, replicate 1: -0.2

wnd [DRSC11046]
- z-score, replicate 1: -0.2

CG13465 [DRSC10011]
- z-score, replicate 1: -0.3

mal [DRSC20581]
- z-score, replicate 1: -0.2

bc10 [DRSC11326]
- z-score, replicate 1: -0.3

MCPH1 [DRSC06309]
- z-score, replicate 1: -0.2

MCPH1 [DRSC07308]
- z-score, replicate 1: -0.2

CG14247 [DRSC14742]
- z-score, replicate 1: 0.1

CG34210 [DRSC04579]
- z-score, replicate 1: -0.4

CG15099 [DRSC06528]
- z-score, replicate 1: 0

lbl [DRSC16986]
- z-score, replicate 1: 0.5

CrebA [DRSC11122]
- z-score, replicate 1: -0.4

heca [DRSC16964]
- z-score, replicate 1: -0.4

CG14005 [DRSC02337]
- z-score, replicate 1: -0.3

rtv [DRSC19541]
- z-score, replicate 1: -0.1

Rif1 [DRSC05593]
- z-score, replicate 1: 0

Zip89B [DRSC16128]
- z-score, replicate 1: -0.1

CG13196 [DRSC06321]
- z-score, replicate 1: -0.1

wuho [DRSC18101]
- z-score, replicate 1: -0.3

CG3085 [DRSC04335]
- z-score, replicate 1: -0.2

CG2961 [DRSC18246]
- z-score, replicate 1: -0.3

CG7252 [DRSC10789]
- z-score, replicate 1: -0.3

TTLL6A [DRSC06618]
- z-score, replicate 1: -0.4

Rab9 [DRSC03281]
- z-score, replicate 1: -0.4

CG14011 [DRSC02343]
- z-score, replicate 1: -0.3
